Data as given in patent publication US20210198374A1.
Results are given in words; binding and its absence hold for the method and conditions named. Binding can be weak; no strength is given.

Legend:
[1] = molecular target: recombinant cynomolgus CD27-FLAG-HIS (cynomolgus); experiment: ELISA; plate coated with recombinant cynomolgus CD27-FLAG-HIS (legend of FIG. 2)
[2] = molecular target: recombinant cynomolgus CD27-FLAG-HIS (cynomolgus); experiment: ELISA; plate coated with recombinant cynomolgus CD27-FLAG-HIS; hybridoma supernatants, anti-rat IgG Fc-HRP detection

binding [1]: binds
binding [2]: binds
B1: 2B3 (antibody, V domains shown)
VH: QVQLVQSGAEVKKPGASVKVSCKASGYTFTGYYIHWVRQAPGQGLEWMGWINPNSGGTNSAQKFQDRVTITRVTSINTAYMELSRLRSDDTAVYFCARDRLVLPWFGEIFPDAFDIWGQGTLVTVSS
VL: EIVMTQSPATLSVSPGERATLSCRASQSIRSNLAWYQQKPGQAPRLLIYGASTRATGIPARFSGSGSGTEFTLTISSLQSENFAVYYCQQYNNWPLTFGGGTKVEIK
